Measurements reported in PubChem BioAssay AID1671195 (Yale University, 2021).

Screen: 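Genes whose knockdown alters LDL uptake in liver cancer cells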 (primary screen)
Cells: human Huh7 hepatoma cells
Reagents: siRNA pool against human genes, 18 nM
Duration: about 2 to 2.5 days of knockdown, then 8 h LDL uptake
Challenge: DiI-labelled LDL at 30 µg/ml for 8 h, in lipoprotein-deficient serum medium
Detection: 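Per-cell DiI-LDL intensity by automated imaging; well means scaled to the plate median and given as a robust z-score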
Scale: robust z-score: higher = more LDL uptake after knockdown
Hit rule: 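a gene counts as active if at least two replicate z-scores exceed ±2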
Here is a random part of about 22,000 reagents. About 1,510 of them (6.9%) were called active. 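Active includes knockdowns raising or lowering LDL uptake; positive z-scores mean more uptake, negative mean less.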 Entries without a mark were called inactive. The numbers tell different reagents against one gene apart.

no.	target gene	pool no.	robust z-score, replicate 1	robust z-score, replicate 2	robust z-score, replicate 3
1	TMED5	1	0.569	1.45	1.27
2	LOC389841 (retired record)	1	1.82	1.54	1.2
3	ZKSCAN7	1	-1.81	-1.71	-1.57
4	C3P1	1	-1.77	-1.71	-1.59
5	GAB3	1	1.22	-0.367	1.01
6	REV3L	1	0.366	0.858	0.942
7	CORO1A	1	-1.7	-1.97	-1.48
8	LOC389642 (retired record)	1	0.845	1.07	0.951
9	LOC439997 (retired record)	1	0.303	0.924	0.269
10	CCNK	1	-0.325	-0.469	-0.927
11	PCDH8	1	0.756	0.229	0.336
12	DPP3	1	0.0378	0.362	0.324
13	SLC67A2	1	2.71 (active)	3.37	3.27
14	TPSD1	1	-1.34	-1.07	-1.25
15	PJA1	1	-0.704	-0.283	-0.675
16	ANGPTL7	1	-0.546	-0.332	0.676
17	LOC401713 (retired record)	1	0.602	0.0403	-0.0828
18	MAGT1	1	-0.0682	0.356	1.36
19	LOC441920 (retired record)	1	-0.913	-0.924	-0.843
20	IAPP	1	-0.521	0.719	0.0681
21	PDZK1IP1	1	-0.131	-0.742	-0.374
22	CCT6A2P	1	1.64	1.17	1.09
23	BBS9	1	-1.02	0.292	-1.49
24	DLG4	1	0.396	1.2	0.37
25	SLC25A35	1	3.16	1.49	-1.98
26	FITM1	1	0.425	0.263	0.687
27	CSE1L	1	1.34 (active)	2.54	2.22
28	LINC01551	1	1.35	1.13	0.947
29	LOC128499 (retired record)	1	-0.404	0.423	-0.312
30	CFAP410	1	-0.191	0.702	0.104
31	LMBRD2	1	1.25	0.918	1.06
32	SBK1	1	-0.787	-1.11	-1.52
33	LOC442380 (retired record)	1	-3.62 (active)	-3.57	-3.28
34	CLEC4A	1	-1.33	-2.33	-0.743
35	TSN	1	-0.029	-0.248	-0.222
36	FJX1	1	-0.553	-0.383	0.267
37	LOC200731 (retired record)	1	0.0248	0.0541	-0.392
38	EMX1	1	0.832	1.51	0.398
39	CSF1R	1	-0.226	-0.636	-0.442
40	FLJ41327 (retired record)	1	0.861	0.937	1.25
41	SIGLECL1	1	0.0423	-0.00166	0.139
42	BBS1	1	-0.894	-0.991	-0.454
43	TECRL	1	-1.39	-1.24	-1.19
44	CCDC89	1	-1.03	-1.15	-1.12
45	CDRT15L2	1	1.45	1.58	1.26
46	RPL6P31	1	-1.55	-1.59	-1.45
47	ZNF681	1	-2.05	-1.71	-0.697
48	GNAT1	1	0.149	-0.043	0.28
49	MRPS6	1	0.2	0.345	0.238
50	LOC402326 (retired record)	1	-0.791	-0.292	-0.577
51	ZNF526	1	-0.616	0.31	-0.353
52	SP6	1	1.25	1.08	1.78
53	LOC340765 (retired record)	1	-0.222	-0.265	-0.0862
54	LINC03010	1	0.38	0.719	1.32
55	TPRA1	1	0.961	0.338	0.593
56	KPNA6	1	-1.16	-0.895	0.664
57	OR2T10	1	0.839	0.198	-1
58	TICAM2	1	-0.568	-0.0147	-0.219
59	HPCAL1	1	-0.735	-1.18	-0.621
60	MAGI1	1	-0.622	1.25	1.22
61	CHAMP1	1	-0.0464	-0.0552	-0.0116
62	FUNDC2P1	1	-0.573	-0.88	-0.724
63	LIMK2	1	0.921	1.42	0.785
64	LOC401056 (retired record)	1	-0.0728	0.122	-0.0749
65	NR4A1	1	0.493	0.311	-0.739
66	FRYL	1	0.207	1.78	-0.21
67	NCR3	1	1.08	1.44	1.66
68	AK7	1	-0.846	-1.47	-1.22
69	LMO2	1	0.224	0.129	0.00508
70	ZC2HC1C	1	1.25	0.599	0.78
71	STRN3	1	-1.82	1.87	-0.903
72	CDC14C	1	-0.853	-0.772	-1.01
73	C19orf73	1	-1.07	-1.37	-0.19
74	ZC2HC1A	1	-1.81	-0.494	-0.464
75	LOC442250 (retired record)	1	0.857	0.613	0.661
76	TAF11L1	1	-0.724	-0.787	-1.05
77	PRSS42P	1	-1.85	-1.76	-2.06
78	FAM13B	1	1.73	2.22	1.12
79	FLOT2	1	-0.0917	-0.53	-0.472
80	CCDC26	1	-0.844	-1.08	-0.451
81	DNAAF11	1	0.298	-0.152	1.71
82	IL31RA	1	-0.473	0.429	-0.216
83	PAOX	1	-0.25	0.336	-0.298
84	TRIM49	1	-1.19	0.332	0.892
85	CAPRIN2	1	0.54	1.08	0.431
86	INO80C	1	-1.71	-1.49	-1.44
87	DDX19A	1	0.541	1.07	1.28
88	DDX19A	2	-1.59	-1.08	-0.972

Records listed so far whose gene name starts with Z or z:
target gene	pool no.	robust z-score, replicate 1	robust z-score, replicate 2	robust z-score, replicate 3
ZKSCAN7	1	-1.81	-1.71	-1.57
ZNF681	1	-2.05	-1.71	-0.697
ZNF526	1	-0.616	0.31	-0.353
ZC2HC1C	1	1.25	0.599	0.78
ZC2HC1A	1	-1.81	-0.494	-0.464
